According to publication PMC10529029:
No constants are given. Whether binding was seen depends on the method and setting. Binding seen in cells or lysates may run through a third protein. Some results given as binding are weak or reduced against the parent protein; the word gives no strength.

Molecular target: T1, Peroxisome proliferator-activated receptor gamma coactivator 1 alpha (PGC1α) (UniProt Q9UBK2)
T1 sequence: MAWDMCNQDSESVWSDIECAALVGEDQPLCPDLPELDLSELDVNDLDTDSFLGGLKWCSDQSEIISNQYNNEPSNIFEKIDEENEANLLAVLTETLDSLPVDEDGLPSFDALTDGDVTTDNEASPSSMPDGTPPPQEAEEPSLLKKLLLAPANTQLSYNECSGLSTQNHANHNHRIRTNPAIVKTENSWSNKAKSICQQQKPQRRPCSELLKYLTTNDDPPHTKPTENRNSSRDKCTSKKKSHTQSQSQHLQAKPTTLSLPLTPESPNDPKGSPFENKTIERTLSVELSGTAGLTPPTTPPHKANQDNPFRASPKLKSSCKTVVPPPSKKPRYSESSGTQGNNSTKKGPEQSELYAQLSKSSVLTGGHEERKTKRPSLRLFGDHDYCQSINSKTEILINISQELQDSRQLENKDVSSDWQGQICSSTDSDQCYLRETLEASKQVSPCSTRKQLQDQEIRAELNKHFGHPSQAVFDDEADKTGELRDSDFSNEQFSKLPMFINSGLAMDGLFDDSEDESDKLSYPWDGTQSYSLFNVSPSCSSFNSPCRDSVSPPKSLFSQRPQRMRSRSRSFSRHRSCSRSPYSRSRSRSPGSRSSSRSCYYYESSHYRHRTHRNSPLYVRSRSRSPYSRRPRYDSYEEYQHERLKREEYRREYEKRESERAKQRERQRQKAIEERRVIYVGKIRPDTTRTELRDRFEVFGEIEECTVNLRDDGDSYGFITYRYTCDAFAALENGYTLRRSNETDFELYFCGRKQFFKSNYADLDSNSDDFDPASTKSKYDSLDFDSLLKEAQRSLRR
Experiment: co-IP; lysate of rPGC1α-treated BC cells, pre-cleared with protein-G agarose; anti-PGC1α or control IgG, protein-G agarose beads overnight at 4 °C; western blot for ERRα in input, IgG and PGC1α immunoprecipitates

B1: Estrogen-related receptor alpha (ERRα) (protein, UniProt P11474 1-423)
chain: MSSQVVGIEPLYIKAEPASPDSPKGSSETETEPPVALAPGPAPTRCLPGHKEEEDGEGAGPGEQGGGKLVLSSLPKRLCLVCGDVASGYHYGVASCEACKAFFKRTIQGSIEYSCPASNECEITKRRRKACQACRFTKCLRVGMLKEGVRLDRVRGGRQKYKRRPEVDPLPFPGPFPAGPLAVAGGPRKTAAPVNALVSHLLVVEPEKLYAMPDPAGPDGHLPAVATLCDLFDREIVVTISWAKSIPGFSSLSLSDQMSVLQSVWMEVLVLGVAQRSLPLQDELAFAEDLVLDEEGARAAGLGELGAALLQLVRRLQALRLEREEYVLLKALALANSDSVHIEDAEAVEQLREALHEALLEYEAGRAGPGGGAERRRAGRLLLTLPLLRQTAGKVLAHFYGVKLEGKVPMHKLFLEMLEAMMD
binding: binds
